Assay results published in article PMC7481187.
Construct, isoform or probe ends are uncertain for at least one entry. Results from cells or extracts need not show a direct contact. At least one verdict was read from the data and is not stated in words by the source.

Chains of the proteins cited; added tags and fusions are not shown.
UniProt P25490, whole entry: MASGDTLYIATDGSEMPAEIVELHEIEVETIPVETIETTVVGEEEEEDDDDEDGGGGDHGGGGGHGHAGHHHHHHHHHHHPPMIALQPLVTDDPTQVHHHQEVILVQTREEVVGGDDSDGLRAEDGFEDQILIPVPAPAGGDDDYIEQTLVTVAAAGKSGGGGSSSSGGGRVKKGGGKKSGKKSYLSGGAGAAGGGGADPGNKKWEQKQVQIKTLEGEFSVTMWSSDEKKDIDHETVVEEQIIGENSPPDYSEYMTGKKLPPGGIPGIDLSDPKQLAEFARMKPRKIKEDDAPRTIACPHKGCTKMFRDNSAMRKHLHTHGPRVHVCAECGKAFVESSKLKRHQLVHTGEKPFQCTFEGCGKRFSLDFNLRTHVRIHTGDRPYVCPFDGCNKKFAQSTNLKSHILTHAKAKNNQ

Target: hsYY1 (Homo sapiens (293T cells)) (UniProt P25490)
Assay: EMSA supershift
Settings: hsYY1 mAb; EMSA: LightShift kit, 20 uL, 500 ng-5 ug bbYY1 or 2-3 uL nuclear extract, 8% native TBE gel; protein in an extract

Row | Sequence | binding result
1 | ATTGCGCGTCGCGCGAAAATTCAAGATGGCGACCAGACACTGC (double strand) [Oligomer 3] | binds
2 | CAAGATGGCCGCCGACCTTATGCACA (double strand) [Oligomer 1] | binds
